Laboratory results taken from PubChem BioAssay AID758 (NMMLSC, 2007).
Screen size: about 190,000 compounds; about 110 (0.058%) were called active. This list was built around the results that the source calls inconclusive (neither active nor inactive); the mix of calls is not that of the screen.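 The calls were made as follows: active = fluorescent GTP binding to Rab7 beads changed by at least 20 points from the 100% baseline, either direction, mostly lower; inconclusive = compound itself probably fluorescent, or too few beads counted; inactive = the rest.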

test system: Rab7 GTPase wild type (dog), Bodipy-FL-GTP binding; assay: modulators of GTP binding to Rab7, primary screen, biochemical, wildtype, multiplex bead flow cytometry (AID 758); conditions: GST-Rab7 beads, fluorescent GTP binding, at 10 µM, actives lie on both sides, untreated = 100%, excess cold GTP = 0%;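 also: median green fluorescence of bound Bodipy-FL-GTP per Rab7 bead population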

Row | SMILES | GTP binding activity (percent of control)
1 | COc1cc(CO)cc(Br)c1OCC(=O)Nc1cccc2ccccc12 | inactive: 106%
2 | CCOc1ccc(/C=C/c2c([N+](=O)[O-])c(=O)n(C)c(=O)n2C)cc1 | inconclusive: 90%
3 | O=C(O)c1ccccc1OCCOc1ccccc1 | active: 123% [activator]
4 | COCCCNC(=O)CN(c1cc(Cl)ccc1OC)S(C)(=O)=O | inactive: 94%
5 | O=C(CN1CCN(c2ccc(O)cc2)CC1)Nc1cc(S(=O)(=O)N2CCCCC2)ccc1Cl | inconclusive: 94%
6 | Brc1ccc(CSc2ncn[nH]2)cc1 | inconclusive: 105%
7 | COc1cccc(OC)c1-c1nn2c(-c3cc(-c4ccccc4)n[nH]3)nnc2s1 | inconclusive: 150%
8 | CC(C)(C)OC(=O)N1CCC[C@H]1c1nnc(SCc2ccc(Cl)cc2Cl)o1 | inconclusive: 89%
9 | O=c1[nH]c2ccccc2n1CCC1CCCCC1 | inactive: 102%
10 | COCCNC(=O)Nc1ccc2nc(-c3ccco3)c(-c3ccco3)nc2c1 | inconclusive: 91%
11 | O=C(CCCCCNc1nc(=S)[nH]c2ccccc12)NCCc1ccc(Cl)cc1 | inactive: 101%
12 | COc1cc(/C=N\NC(=O)c2sc(N)nc2C)cc(OC)c1OC | inconclusive: 81%
13 | OCC1(Cc2ccccc2C(F)(F)F)CCN(Cc2cccc3cnccc23)CC1 | inactive: 96%
14 | Cc1nc(Cl)c2c(n1)N(CC(N)=O)C(=O)CO2 | inactive: 100%
15 | O=C1CC(c2nc3ccccc3[nH]2)CN1c1ccccc1F (stereo unspecified) | inconclusive: 101%
16 | C/C(=N\NC(=O)c1ccco1)c1ccc(NC(=O)c2ccccc2)cc1 | inconclusive: 96%
17 | Cc1cccc(N2C(=O)CC(N(O)c3ccccc3)C2=O)c1 (stereo unspecified) | inconclusive: 100%
18 | CS(=O)(=O)N1CCN(c2ccccc2NC(=O)c2ccco2)CC1 | inconclusive: 95%
19 | Cc1ccc2c(CSc3nncn3C)cc(=O)oc2c1C | inconclusive: 95%
20 | O=C(CNS(=O)(=O)c1cccs1)NCc1ccccc1 | inactive: 102%
21 | COc1ccc2cc(CCNC(=O)C3CC3)c(=O)[nH]c2c1 | inconclusive: 96%

Row | SMILES | GTP binding activity (percent of control)
22 | O=S(=O)(c1ccc(F)cc1)n1ccc2cccnc21 | inconclusive: 106%
23 | Cc1ccc2c(c1)N(CCC(=O)NC1CC1)C(=O)C(C)O2 (stereo unspecified) | inconclusive: 101%
24 | CCC(Sc1nc(N)c(NC(=O)c2ccc(OC)cc2)c(=O)[nH]1)C(=O)O (stereo unspecified) | inactive: 103%
25 | NC(=S)Nc1nccc(-c2cccs2)n1 | inconclusive: 93%
26 | CCOC(=O)c1c(N)sc(C(=O)Nc2ccccc2)c1C | inconclusive: 96%
27 | CN(CC(=O)N1CCN(c2cccc(Cl)c2)CC1)S(=O)(=O)c1cccs1 | inactive: 96%
28 | CC(=O)c1cc(-c2ccccc2)n(CC(=O)Nc2cccc(C)c2C)c1C | inconclusive: 102%
29 | Cc1ccc(CNC(=O)C2CCN(S(=O)(=O)N3CCCCC3)CC2)cc1 | inconclusive: 97%
30 | CSc1nsc(SC)c1NC(=O)OC1CCCCC1 | active: 20%
31 | Cc1cc(C)cc(OCC(=O)Nc2ccc(S(=O)(=O)Nc3ccccn3)cc2)c1 | inconclusive: 96%
32 | O=C(O)CCCC(=O)NCCCCc1ccccc1 | inconclusive: 88%
33 | CCc1cc2cc(C)ccc2nc1SCC(=O)Nc1cc(C)on1 | inconclusive: 100%
34 | CCc1ccccc1NC(=O)Cn1nc(C(F)(F)F)cc1C1CC1 | inactive: 97%
35 | COc1cc(CC(=O)NCc2ccco2)cc(OC)c1OC | inconclusive: 101%
36 | CC1=C(Cl)C2=NS(=O)(=O)CCN2C=C1Cl | inactive: 103%
37 | CSc1ccc(C(=S)N2CCN(C)CC2)cc1 | inconclusive: 103%
38 | C=CCc1cc(C=O)cc(OC)c1OCc1ccc(C(=O)O)cc1 | inconclusive: 102%
39 | CCOc1cccc(-c2nnc3sc(COc4ccc(C)cc4)nn23)c1 | inconclusive: 83%
40 | COc1ccc(CSc2nnc(SCc3ccc([N+](=O)[O-])cc3)s2)cc1 | inconclusive: 102%
41 | COc1ccc(C(=O)Cc2ccc(OC)c(OC)c2)c(OC)c1 | inconclusive: 99%
42 | CCn1cc(C(=O)O)c(=O)c2cc(F)c(N/N=C/c3ccccc3)cc21 | inactive: 89%

Row | SMILES | GTP binding activity (percent of control)
43 | Cc1[nH]c2ccccc2c1C(=O)COC(=O)c1ccc2c(=O)n3c(nc2c1)CCC3 | inactive: 99%
44 | CC(C)CC(=O)Nc1c2c(nn1-c1ccc(F)cc1)CSC2 | inactive: 103%
45 | Cc1ccc(OCCNC(=O)c2cccc(Oc3ccc(C(F)(F)F)cc3[N+](=O)[O-])c2)cc1 | inconclusive: 88%
46 | Cc1cc2c(s1)c1cnn(CC(=O)NCCc3ccccc3)c(=O)c1n2C | inactive: 98%
47 | CCS(=O)(=O)NC(C)C(c1cccs1)N1CCN(c2ccc(OC)cc2)CC1 (stereo unspecified) | inconclusive: 93%
48 | CCOc1cccc(CNCc2cccnc2)c1OCc1ccccc1 | inconclusive: 98%
49 | Cc1cc(C(=O)OCn2nnc3ccccc3c2=O)c(C)n1-c1ccccc1 | inactive: 92%
50 | O=C(O)CCn1ccnc1-c1ccccc1 | inconclusive: 103%
51 | CC1c2nc3ccccc3n2C(CC(=O)NC2CC2)C(=O)N1Cc1ccccc1 (stereo unspecified) | inactive: 106%
52 | CCOC(=O)c1nn(-c2ccccc2)c(=O)c(C#N)c1C | inconclusive: 103%
53 | CCC(C)NC(=O)CSc1nc2n[nH]c(C)c2c(=N)n1-c1ccc(OC)cc1 (stereo unspecified) | inconclusive: 83%
54 | O=C(O)CCc1nnc(SCC(=O)Nc2ccc(Br)cc2)[nH]c1=O | inconclusive: 93%
55 | O=C(Nc1cccc(S(=O)(=O)N2CCCC2)c1)c1ccc2ccccc2n1 | inconclusive: 91%
56 | COc1ccc(S(=O)(=O)NC(C(=O)NCCc2ccccn2)C(C)C)cc1 (stereo unspecified) | inactive: 109%
57 | O=C(CSc1nnc(-c2cccnc2)o1)c1cc2ccccc2oc1=O | inconclusive: 103%
58 | O=C(OCc1cccc2ccccc12)c1ccc2c(=O)[nH]c(CN3CCOCC3)nc2c1 | inconclusive: 98%
59 | COc1ccc(-c2oc3c(OC)c(OC)c(OC)c(O)c3c(=O)c2OC)cc1OC | inconclusive: 103%
60 | Cc1c(CN2CCc3c([nH]c4ccccc34)C2C2CCCCC2)cnn1C (stereo unspecified) | inactive: 97%
61 | COc1cccc(C(=O)COC(=O)c2n[nH]c(=O)c3ccccc23)c1 | inconclusive: 93%

Pulled one by one from above, 4 records:
Row | SMILES | GTP binding activity (percent of control)
7 | COc1cccc(OC)c1-c1nn2c(-c3cc(-c4ccccc4)n[nH]3)nnc2s1 | inconclusive: 150%
60 | Cc1c(CN2CCc3c([nH]c4ccccc34)C2C2CCCCC2)cnn1C (stereo unspecified) | inactive: 97%
25 | NC(=S)Nc1nccc(-c2cccs2)n1 | inconclusive: 93%
15 | O=C1CC(c2nc3ccccc3[nH]2)CN1c1ccccc1F (stereo unspecified) | inconclusive: 101%
